From PMC8028314, “Sae2 and Rif2 regulate MRX endonuclease activity at DNA double-strand breaks in opposite manners” (Cell Reports, 2021) come the findings set out here.

Results are given in words; binding and its absence hold for the method and conditions named. Binding seen in cells or lysates may run through a third protein. Some entries that bind do so weakly or less than the wild type. Sequences can lack the tags named with a protein.

In this test the target is T1, Rif2-Myc (S. cerevisiae) (UniProt Q06208).
T1 sequence: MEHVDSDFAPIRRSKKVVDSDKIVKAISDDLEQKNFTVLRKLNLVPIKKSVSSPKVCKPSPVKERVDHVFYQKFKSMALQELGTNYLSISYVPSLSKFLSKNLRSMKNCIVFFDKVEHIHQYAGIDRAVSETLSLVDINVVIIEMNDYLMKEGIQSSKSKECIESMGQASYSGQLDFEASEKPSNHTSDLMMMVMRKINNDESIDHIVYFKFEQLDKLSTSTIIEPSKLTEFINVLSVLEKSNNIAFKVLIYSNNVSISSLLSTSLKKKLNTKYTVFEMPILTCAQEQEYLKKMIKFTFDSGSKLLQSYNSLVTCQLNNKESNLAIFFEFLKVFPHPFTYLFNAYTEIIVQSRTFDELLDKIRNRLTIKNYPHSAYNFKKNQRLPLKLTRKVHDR
Briefly: co-IP; protein extracts of exponentially growing xrs2Δ S. cerevisiae cells; IP with anti-Myc antibody, western blots with anti-HA and anti-Myc; lysis buffer 50 mM HEPES pH 7.5, 140 mM NaCl, 1 mM EDTA, 10% glycerol, 0.5% NP40.

B1: Rad50-HA (protein, UniProt P12753 1-1312)
chain: MSAIYKLSIQGIRSFDSNDRETIEFGKPLTLIVGMNGSGKTTIIECLKYATTGDLPPNSKGGVFIHDPKITGEKDIRAQVKLAFTSANGLNMIVTRNIQLLMKKTTTTFKTLEGQLVAINNSGDRSTLSTRSLELDAQVPLYLGVPKAILEYVIFCHQEDSLWPLSEPSNLKKKFDEIFQAMKFTKALDNLKSIKKDMSVDIKLLKQSVEHLKLDKDRSKAMKLNIHQLQTKIDQYNEEVSEIESQLNEITEKSDKLFKSNQDFQKILSKVENLKNTKLSISDQVKRLSNSIDILDLSKPDLQNLLANFSKVLMDKNNQLRDLETDISSLKDRQSSLQSLSNSLIRRQGELEAGKETYEKNRNHLSSLKEAFQHKFQGLSNIENSDMAQVNHEMSQFKAFISQDLTDTIDQFAKDIQLKETNLSDLIKSITVDSQNLEYNKKDRSKLIHDSEELAEKLKSFKSLSTQDSLNHELENLKTYKEKLQSWESENIIPKLNQKIEEKNNEMIILENQIEKFQDRIMKTNQQADLYAKLGLIKKSINTKLDELQKITEKLQNDSRIRQVFPLTQEFQRADLEMDFQKLFINMQKNIAINNKKMHELDRRYTNALYNLNTIEKDLQDNQKSKEKVIQLLSENLPEDCTIDEYNDVLEETELSYKTALENLKMHQTTLEFNRKALEIAERDSCCYLCSRKFENESFKSKLLQELKTKTDANFEKTLKDTVQNEKEYLHSLRLLEKHIITLNSINEKIDNSQKCLEKAKEETKTSKSKLDELEVDSTKLKDEKELAESEIRPLIEKFTYLEKELKDLENSSKTISEELSIYNTSEDGIQTVDELRDQQRKMNDSLRELRKTISDLQMEKDEKVRENSRMINLIKEKELTVSEIESSLTQKQNIDDSIRSKRENINDIDSRVKELEARIISLKNKKDEAQSVLDKVKNERDIQVRNKQKTVADINRLIDRFQTIYNEVVDFEAKGFDELQTTIKELELNKAQMLELKEQLDLKSNEVNEEKRKLADSNNEEKNLKQNLELIELKSQLQHIESEISRLDVQNAEAERDKYQEESLRLRTRFEKLSSENAGKLGEMKQLQNQIDSLTHQLRTDYKDIEKNYHKEWVELQTRSFVTDDIDVYSKALDSAIMKYHGLKMQDINRIIDELWKRTYSGTDIDTIKIRSDEVSSTVKGKSYNYRVVMYKQDVELDMRGRCSAGQKVLASIIIRLALSETFGANCGVIALDEPTTNLDEENIESLAKSLHNIINMRRHQKNFQLIVITHDEKFLGHMNAAAFTDHFFKVKRDDRQKSQIEWVDINRVTY
For B1, the binding result is reported as “binds”.

B2: Rad50^K81I-hemagglutinin (HA) (protein, UniProt P12753 1-1312)
chain: MSAIYKLSIQGIRSFDSNDRETIEFGKPLTLIVGMNGSGKTTIIECLKYATTGDLPPNSKGGVFIHDPKITGEKDIRAQVILAFTSANGLNMIVTRNIQLLMKKTTTTFKTLEGQLVAINNSGDRSTLSTRSLELDAQVPLYLGVPKAILEYVIFCHQEDSLWPLSEPSNLKKKFDEIFQAMKFTKALDNLKSIKKDMSVDIKLLKQSVEHLKLDKDRSKAMKLNIHQLQTKIDQYNEEVSEIESQLNEITEKSDKLFKSNQDFQKILSKVENLKNTKLSISDQVKRLSNSIDILDLSKPDLQNLLANFSKVLMDKNNQLRDLETDISSLKDRQSSLQSLSNSLIRRQGELEAGKETYEKNRNHLSSLKEAFQHKFQGLSNIENSDMAQVNHEMSQFKAFISQDLTDTIDQFAKDIQLKETNLSDLIKSITVDSQNLEYNKKDRSKLIHDSEELAEKLKSFKSLSTQDSLNHELENLKTYKEKLQSWESENIIPKLNQKIEEKNNEMIILENQIEKFQDRIMKTNQQADLYAKLGLIKKSINTKLDELQKITEKLQNDSRIRQVFPLTQEFQRADLEMDFQKLFINMQKNIAINNKKMHELDRRYTNALYNLNTIEKDLQDNQKSKEKVIQLLSENLPEDCTIDEYNDVLEETELSYKTALENLKMHQTTLEFNRKALEIAERDSCCYLCSRKFENESFKSKLLQELKTKTDANFEKTLKDTVQNEKEYLHSLRLLEKHIITLNSINEKIDNSQKCLEKAKEETKTSKSKLDELEVDSTKLKDEKELAESEIRPLIEKFTYLEKELKDLENSSKTISEELSIYNTSEDGIQTVDELRDQQRKMNDSLRELRKTISDLQMEKDEKVRENSRMINLIKEKELTVSEIESSLTQKQNIDDSIRSKRENINDIDSRVKELEARIISLKNKKDEAQSVLDKVKNERDIQVRNKQKTVADINRLIDRFQTIYNEVVDFEAKGFDELQTTIKELELNKAQMLELKEQLDLKSNEVNEEKRKLADSNNEEKNLKQNLELIELKSQLQHIESEISRLDVQNAEAERDKYQEESLRLRTRFEKLSSENAGKLGEMKQLQNQIDSLTHQLRTDYKDIEKNYHKEWVELQTRSFVTDDIDVYSKALDSAIMKYHGLKMQDINRIIDELWKRTYSGTDIDTIKIRSDEVSSTVKGKSYNYRVVMYKQDVELDMRGRCSAGQKVLASIIIRLALSETFGANCGVIALDEPTTNLDEENIESLAKSLHNIINMRRHQKNFQLIVITHDEKFLGHMNAAAFTDHFFKVKRDDRQKSQIEWVDINRVTY
As to B2, the binding entry is on record as “binds”.
